Earlier results as cited in patent US5935597A, “Drug delivery devices and methods for treatment of viral and microbial infections and wasting syndromes” (Cryopreservation Technologies CC, priority 1995, dated 1999).
For at least one compound, name, drawing or mass did not settle the structure. Some entries repeat one wording, which the source may state once for all of them.

System: HIV
Conditions: cited from earlier work

Nc1ccn([C@H]2CC[C@@H](CO)O2)c(=O)n1 [ddC, dideoxycytidine]
anti-HIV activity: active against HIV
